PubChem BioAssay AID504764 | Drosophila RNAi Screening Center, 2011
The deposit covers about 22,000 reagents; below is a random part of those that have a named target and a result. In the full data, 403 (1.9%) got an active call. 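Unnormalised raw counts per well; ratio z-scores behind the hit calls and whether each hit raises or lowers signal are not deposited.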 Names joined by + are all predicted targets of the reagent. Not given: the amount of reagent.

- Purpose: 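Genes whose knock-down alters Notch-dependent transcription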 (primary screen)
- System: Drosophila Kc167 cells
- Reagents: long dsRNA against Drosophila genes
- Duration: about 5 days (4 days dsRNA, then 24 h after transfection)
- Treatment: transfection of constitutively active membrane-tethered Notch lacking the extracellular domain, read 24 h later
- Read-out: 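Light from a Notch-responsive E(spl)m3 luciferase reporter under active Notch, with control-promoter and no-Notch reporter wells to normalise; raw counts from paired wells a and b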
- Scale: induced reporter light, run 1, well a and induced reporter light, run 1, well b: higher = more light from the Notch target reporter with active Notch; control promoter light, run 1, well a and control promoter light, run 1, well b: higher = more light from the viral control promoter (cell number, transfection, viability); uninduced reporter light, run 1, well a: higher = more light from the Notch target reporter without active Notch
- Active means: 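Wells with low control signal or poorly matching duplicates excluded; duplicates averaged; per source plate, z beyond ±2 for induced/control log2 ratio or beyond ±1.8 for induced/uninduced marks a hit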
- Meaning of the calls: active = modifier hit (raised or lowered Notch signal); inactive = not a hit

The opening 5 records, to show the layout:
| target gene | dsRNA | induced reporter light, run 1, well a | induced reporter light, run 1, well b | control promoter light, run 1, well a | control promoter light, run 1, well b | uninduced reporter light, run 1, well a | call |
| --- | --- | --- | --- | --- | --- | --- | --- |
| CG1324 (GeneID 33060) | DRSC20496 | 1.31e5 | 1.24e5 | 99000 | 60645 | 10395 | inactive |
| su(w[a]) (GeneID 31054) | DRSC18840 | 1.18e5 | 1.48e5 | 1.07e5 | 1.07e5 | 10815 | active |
| Nadk1a (GeneID 36506) | DRSC05431 | 1.94e5 | 1.93e5 | 2.12e5 | 2.60e5 | 16080 | inactive |
| Nadk1a (GeneID 36506) | DRSC06963 | 1.71e5 | 1.41e5 | 1.59e5 | 1.61e5 | 12282 | inactive |
| Odc2 (GeneID 35767) | DRSC07483 | 2.23e5 | 1.81e5 | 2.66e5 | 2.23e5 | 18195 | inactive |

The listing, from the first entry:
| target gene | dsRNA | induced reporter light, run 1, well a | induced reporter light, run 1, well b | control promoter light, run 1, well a | control promoter light, run 1, well b | uninduced reporter light, run 1, well a | call |
| --- | --- | --- | --- | --- | --- | --- | --- |
| CG1324 (GeneID 33060) | DRSC20496 | 1.31e5 | 1.24e5 | 99000 | 60645 | 10395 | inactive |
| su(w[a]) (GeneID 31054) | DRSC18840 | 1.18e5 | 1.48e5 | 1.07e5 | 1.07e5 | 10815 | active |
| Nadk1a (GeneID 36506) | DRSC05431 | 1.94e5 | 1.93e5 | 2.12e5 | 2.60e5 | 16080 | inactive |
| Nadk1a (GeneID 36506) | DRSC06963 | 1.71e5 | 1.41e5 | 1.59e5 | 1.61e5 | 12282 | inactive |
| Odc2 (GeneID 35767) | DRSC07483 | 2.23e5 | 1.81e5 | 2.66e5 | 2.23e5 | 18195 | inactive |
| sip3 (GeneID 43747) | DRSC15402 | 2.25e5 | 2.00e5 | 2.32e5 | 2.12e5 | 13645 | inactive |
| Faa (GeneID 45577) | DRSC08451 | 1.22e5 | 1.53e5 | 76655 | 29140 | 12245 | inactive |
| GABPI (GeneID 33516) | DRSC00494 | 2.10e5 | 1.76e5 | 2.40e5 | 2.36e5 | 19555 | inactive |
| APC4 (GeneID 31835) | DRSC18360 | 2.13e5 | 1.79e5 | 2.43e5 | 2.59e5 | 12135 | inactive |
| CG11893 (GeneID 43056) | DRSC14429 | 1.36e5 | 1.67e5 | 2.12e5 | 1.91e5 | 14095 | inactive |
| Kdm5 (GeneID 33837) | DRSC03133 | 1.69e5 | 1.34e5 | 1.19e5 | 1.19e5 | 7720 | active |
| kuz (GeneID 34772) | DRSC03555 | 1.17e5 | 1.11e5 | 1.22e5 | 1.54e5 | 8965 | inactive |
| Rdl (GeneID 39054) | DRSC11264 | 1.07e5 | 87715 | 77190 | 35235 | 9265 | inactive |
| CheB53a (GeneID 3346205) | DRSC06625 | 1.40e5 | 1.03e5 | 1.06e5 | 99380 | 13820 | inactive |
| BRWD3 (GeneID 42898) | DRSC15369 | 1.05e5 | 96350 | 1.27e5 | 1.41e5 | 17085 | active |
| BRWD3 (GeneID 42898) | DRSC16032 | 1.38e5 | 1.32e5 | 1.18e5 | 1.39e5 | 15292 | inactive |
| Nlg1 (GeneID 40913) | DRSC12485 | 1.15e5 | 1.39e5 | 1.41e5 | 96150 | 12400 | inactive |
| Nlg1 (GeneID 40913) | DRSC12532 | 84330 | 75565 | 99850 | 71890 | 5825 | inactive |
| Nlg1 (GeneID 40913) | DRSC12533 | 61205 | 75705 | 69810 | 44780 | 6965 | inactive |
| Nlg1 (GeneID 40913) | DRSC12539 | 73770 | 77545 | 75190 | 61115 | 5645 | inactive |
| slpr (GeneID 44111) | DRSC18225 | 1.78e5 | 1.48e5 | 1.90e5 | 2.01e5 | 14020 | inactive |
| CG8004 (GeneID 40178) | DRSC10947 | 1.16e5 | 1.24e5 | 74685 | 92880 | 9070 | inactive |
| CG12766 (GeneID 38462) | DRSC08295 | 1.07e5 | 1.07e5 | 1.80e5 | 1.35e5 | 6365 | inactive |
| PIG-A (GeneID 37020) | DRSC06982 | 89865 | 1.02e5 | 1.88e5 | 1.98e5 | 8500 | inactive |
| Acadvl (GeneID 37217) | DRSC07022 | 1.12e5 | 1.31e5 | 1.95e5 | 1.96e5 | 8565 | inactive |
| CG7530 (GeneID 41784) | DRSC16255 | 1.35e5 | 1.41e5 | 1.17e5 | 1.04e5 | 10960 | active |
| gro (GeneID 43162) | DRSC16962 | 2.89e5 | 3.58e5 | 3.18e5 | 3.33e5 | 18650 | inactive |
| CG8950 (GeneID 36921) | DRSC07300 | 95870 | 1.35e5 | 2.50e5 | 1.95e5 | 9215 | inactive |
| CG1544 (GeneID 43689) | DRSC15036 | 1.64e5 | 1.37e5 | 2.05e5 | 2.56e5 | 12990 | inactive |
| wuc (GeneID 36401) | DRSC06152 | 79980 | 84230 | 1.03e5 | 85570 | 6588 | inactive |
| Tailor (GeneID 40847) | DRSC12526 | 57695 | 73785 | 62705 | 51965 | 8595 | inactive |
| Nplp1 (GeneID 38003) | DRSC04370 | 1.93e5 | 2.24e5 | 1.58e5 | 1.89e5 | 15850 | inactive |
| siz (GeneID 40327) | DRSC11622 | 51560 | 38215 | 34695 | 33780 | 3735 | inactive |
| siz (GeneID 40327) | DRSC11689 | 90600 | 98810 | 1.74e5 | 1.41e5 | 8410 | inactive |
| siz (GeneID 40327) | DRSC11690 | 1.19e5 | 1.12e5 | 1.36e5 | 1.20e5 | 11045 | inactive |
| Rab19 (GeneID 38930) | DRSC11260 | 1.51e5 | 1.38e5 | 1.56e5 | 1.53e5 | 6560 | inactive |
| stc (GeneID 34888) | DRSC03620 | 2.11e5 | 2.34e5 | 2.10e5 | 2.45e5 | 15930 | inactive |
| Nbr (GeneID 35385) | DRSC03166 | 2.48e5 | 2.16e5 | 1.97e5 | 1.68e5 | 19640 | inactive |
| Lztr1 (GeneID 31037) | DRSC18176 | 93805 | 1.09e5 | 1.96e5 | 2.05e5 | 9250 | inactive |
| Lztr1 (GeneID 31037) | DRSC18647 | 1.13e5 | 1.09e5 | 1.89e5 | 2.60e5 | 8135 | inactive |
| cerv (GeneID 32492) | DRSC19681 | 59455 | 54770 | 57940 | 64010 | 9060 | inactive |
| AnxB10 (GeneID 33019) | DRSC20677 | 1.07e5 | 1.54e5 | 1.12e5 | 64795 | 8838 | inactive |
| Cyp305a1 (GeneID 40161) | DRSC11126 | 1.10e5 | 1.21e5 | 65545 | 82740 | 10995 | inactive |
| Atu (GeneID 40684) | DRSC12123 | 1.52e5 | 1.19e5 | 94405 | 1.00e5 | 10080 | inactive |
| GPHR (GeneID 36682) | DRSC07075 | 91710 | 95590 | 1.21e5 | 1.05e5 | 8370 | inactive |
| Fcp3C (GeneID 31294) | DRSC18665 | 95195 | 1.11e5 | 1.35e5 | 1.54e5 | 7575 | inactive |
| glec (GeneID 42571) | DRSC16958 | 1.85e5 | 1.43e5 | 2.20e5 | 2.20e5 | 13965 | inactive |
| mael (GeneID 40489) | DRSC11894 | 1.17e5 | 1.01e5 | 63715 | 77560 | 7285 | inactive |
| TBC1d7 + mRpS24 | DRSC14611 | 1.63e5 | 1.55e5 | 1.86e5 | 1.74e5 | 13315 | inactive |
| Mlc2 (GeneID 43587) | DRSC16741 | 1.61e5 | 1.97e5 | 1.79e5 | 1.67e5 | 12245 | inactive |
